Values of other authors, collected in patent publication US20120245028A1, “Methods for Use of Tetraalkyl Ammonium Halide Compositions as Post-emergence Higher Plant Herbicides” (priority 2011, published 2012).
Some entries share one result that the patent states for a list of compounds.

Test system: henbit
Details: post-emergence applications made at temperatures below 76° F.

For `O=C(O)CNCP(=O)(O)O` [glyphosate], the control of henbit is listed as “less than 50%”.
For `C[n+]1ccc(-c2cc[n+](C)cc2)cc1` [paraquat], the control of henbit is listed as “less than 50%”.
